Data taken from publication PMC2702278.
These are yes or no findings as the source states them, for the method shown. In cells and extracts the contact can be indirect. These calls come from enrichment with a bait or labelling near it, and not all partners need be listed.

By UniProt entry, the sequences of proteins in these tests, tags left out. Where a name states a change or a piece, a line headed by the entry shows the natural chain unless it says otherwise.
UniProt Q96B97: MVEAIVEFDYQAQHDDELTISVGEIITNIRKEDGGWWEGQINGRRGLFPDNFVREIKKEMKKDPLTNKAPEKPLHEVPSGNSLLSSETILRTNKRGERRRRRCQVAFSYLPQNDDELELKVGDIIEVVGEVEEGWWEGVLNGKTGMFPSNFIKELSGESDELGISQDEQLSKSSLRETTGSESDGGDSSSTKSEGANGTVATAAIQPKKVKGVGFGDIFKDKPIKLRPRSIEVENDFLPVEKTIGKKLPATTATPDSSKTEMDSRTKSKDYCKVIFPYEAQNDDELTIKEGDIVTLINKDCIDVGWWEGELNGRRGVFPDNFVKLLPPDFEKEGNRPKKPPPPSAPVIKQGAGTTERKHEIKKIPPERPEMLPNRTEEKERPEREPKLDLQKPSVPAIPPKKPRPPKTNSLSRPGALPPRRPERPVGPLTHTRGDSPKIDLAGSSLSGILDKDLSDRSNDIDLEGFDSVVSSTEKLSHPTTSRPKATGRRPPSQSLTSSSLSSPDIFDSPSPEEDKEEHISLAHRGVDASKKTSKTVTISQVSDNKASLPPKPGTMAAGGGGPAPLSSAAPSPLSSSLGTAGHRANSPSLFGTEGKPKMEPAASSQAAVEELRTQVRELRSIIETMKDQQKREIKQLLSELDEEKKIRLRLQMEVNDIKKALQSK

Columns and labels:
Test in all cases: affinity purification with mass spectrometry; GST-fusion SH3 domain (about 10 μg on 40 μl Glutathione Sepharose 4B) incubated 4 h at 4°C with HeLa lysate pre-cleared on GST beads; 20 mM Tris pH 7.5, 150 mM NaCl, 5 mM EDTA, 5% glycerol, 0.5% Triton X-100 (washes 0.1%); SDS-PAGE, in-gel trypsin digestion, LC-MS/MS; hits also found with GST alone removed; only the target purified
[1] = biological target: GST-fusion SH3C domain of Ruk/CIN85 (UniProt Q96B97)
[2] = biological target: GST-fusion SH3A domain of Ruk/CIN85 (UniProt Q96B97)
[3] = biological target: GST-fusion SH3B domain of Ruk/CIN85 (UniProt Q96B97)

Measured: binding

B1: RICH1 (protein, UniProt Q68EM7 1-881)
chain: MKKQFNRMKQLANQTVGRAEKTEVLSEDLLQIERRLDTVRSICHHSHKRLVACFQGQHGTDAERRHKKLPLTALAQNMQEASTQLEDSLLGKMLETCGDAENQLALELSQHEVFVEKEIVDPLYGIAEVEIPNIQKQRKQLARLVLDWDSVRARWNQAHKSSGTNFQGLPSKIDTLKEEMDEAGNKVEQCKDQLAADMYNFMAKEGEYGKFFVTLLEAQADYHRKALAVLEKTLPEMRAHQDKWAEKPAFGTPLEEHLKRSGREIALPIEACVMLLLETGMKEEGLFRIGAGASKLKKLKAALDCSTSHLDEFYSDPHAVAGALKSYLRELPEPLMTFNLYEEWTQVASVQDQDKKLQDLWRTCQKLPPQNFVNFRYLIKFLAKLAQTSDVNKMTPSNIAIVLGPNLLWARNEGTLAEMAAATSVHVVAVIEPIIQHADWFFPEEVEFNVSEAFVPLTTPSSNHSFHTGNDSDSGTLERKRPASMAVMEGDLVKKESFGVKLMDFQAHRRGGTLNRKHISPAFQPPLPPTDGSTVVPAGPEPPPQSSRAESSSGGGTVPSSAGILEQGPSPGDGSPPKPKDPVSAAVPAPGRNNSQIASGQNQPQAAAGSHQLSMGQPHNAAGPSPHTLRRAVKKPAPAPPKPGNPPPGHPGGQSSSGTSQHPPSLSPKPPTRSPSPPTQHTGQPPGQPSAPSQLSAPRRYSSSLSPIQAPNHPPPQPPTQATPLMHTKPNSQGPPNPMALPSEHGLEQPSHTPPQTPTPPSTPPLGKQNPSLPAPQTLAGGNPETAQPHAGTLPRPRPVPKPRNRPSVPPPPQPPGVHSAGDSSLTNTAPTASKIVTDSNSRVSEPHRSIFPEMHSDSASKDVPGRILLDIDNDTESTAL
binds: all assays above

B2: Synaptojanin 2 (protein, UniProt O15056 1-1496)
chain: MALSKGLRLLGRLGAEGDCSVLLEARGRDDCLLFEAGTVATLAPEEKEVIKGQYGKLTDAYGCLGELRLKSGGTSLSFLVLVTGCTSVGRIPDAEIYKITATDFYPLQEEAKEEERLIALKKILSSGVFYFSWPNDGSRFDLTVRTQKQGDDSSEWGNSFFWNQLLHVPLRQHQVSCCDWLLKIICGVVTIRTVYASHKQAKACLVSRVSCERTGTRFHTRGVNDDGHVSNFVETEQMIYMDDGVSSFVQIRGSVPLFWEQPGLQVGSHHLRLHRGLEANAPAFDRHMVLLKEQYGQQVVVNLLGSRGGEEVLNRAFKKLLWASCHAGDTPMINFDFHQFAKGGKLEKLETLLRPQLKLHWEDFDVFTKGENVSPRFQKGTLRMNCLDCLDRTNTVQSFIALEVLHLQLKTLGLSSKPIVDRFVESFKAMWSLNGHSLSKVFTGSRALEGKAKVGKLKDGARSMSRTIQSNFFDGVKQEAIKLLLVGDVYGEEVADKGGMLLDSTALLVTPRILKAMTERQSEFTNFKRIRIAMGTWNVNGGKQFRSNVLRTAELTDWLLDSPQLSGATDSQDDSSPADIFAVGFEEMVELSAGNIVNASTTNKKMWGEQLQKAISRSHRYILLTSAQLVGVCLYIFVRPYHVPFIRDVAIDTVKTGMGGKAGNKGAVGIRFQFHSTSFCFICSHLTAGQSQVKERNEDYKEITQKLCFPMGRNVFSHDYVFWCGDFNYRIDLTYEEVFYFVKRQDWKKLLEFDQLQLQKSSGKIFKDFHEGAINFGPTYKYDVGSAAYDTSDKCRTPAWTDRVLWWRKKHPFDKTAGELNLLDSDLDVDTKVRHTWSPGALQYYGRAELQASDHRPVLAIVEVEVQEVDVGARERVFQEVSSFQGPLDATVVVNLQSPTLEEKNEFPEDLRTELMQTLGSYGTIVLVRINQGQMLVTFADSHSALSVLDVDGMKVKGRAVKIRPKTKDWLKGLREEIIRKRDSMAPVSPTANSCLLEENFDFTSLDYESEGDILEDDEDYLVDEFNQPGVSDSELGGDDLSDVPGPTALAPPSKSPALTKKKQHPTYKDDADLVELKRELEAVGEFRHRSPSRSLSVPNRPRPPQPPQRPPPPTGLMVKKSASDASISSGTHGQYSILQTARLLPGAPQQPPKARTGISKPYNVKQIKTTNAQEAEAAIRCLLEARGGASEEALSAVAPRDLEASSEPEPTPGAAKPETPQAPPLLPRRPPPRVPAIKKPTLRRTGKPLSPEEQFEQQTVHFTIGPPETSVEAPPVVTAPRVPPVPKPRTFQPGKAAERPSHRKPASDEAPPGAGASVPPPLEAPPLVPKVPPRRKKSAPAAFHLQVLQSNSQLLQGLTYNSSDSPSGHPPAAGTVFPQGDFLSTSSATSPDSDGTKAMKPEAAPLLGDYQDPFWNLLHHPKLLNNTWLSKSSDPLDSGTRSPKRDPIDPVSAGASAAKAELPPDHEHKTLGHWVTISDQEKRTALQVFDPLAKT
binds: all assays above

B3: ARAP1 (protein, UniProt Q96P48 1-1450)
chain: MAEAGDAALSVAEWLRALHLEQYTGLFEQHGLVWATECQGLSDTRLMDMGMLLPGHRRRILAGLLRAHTSPAPAPRPTPRPVPMKRHIFRSPPVPATPPEPLPTTTEDEGLPAAPPIPPRRSCLPPTCFTTPSTAAPDPVLPPLPAKRHLAELSVPPVPPRTGPPRLLVSLPTKEEESLLPSLSSPPQPQSEEPLSTLPQGPPQPPSPPPCPPEIPPKPVRLFPEFDDSDYDEVPEEGPGAPARVMTKKEEPPPSRVPRAVRVASLLSEGEELSGDDQGDEEEDDHAYEGVPNGGWHTSSLSLSLPSTIAAPHPMDGPPGGSTPVTPVIKAGWLDKNPPQGSYIYQKRWVRLDTDHLRYFDSNKDAYSKRFISVACISHVAAIGDQKFEVITNNRTFAFRAESDVERKEWMQALQQAMAEQRARARLSSAYLLGVPGSEQPDRAGSLELRGFKNKLYVAVVGDKVQLYKNLEEYHLGIGITFIDMSVGNVKEVDRRSFDLTTPYRIFSFSADSELEKEQWLEAMQGAIAEALSTSEVAERIWAAAPNRFCADCGAPQPDWASINLCVVICKRCAGEHRGLGAGVSKVRSLKMDRKVWTETLIELFLQLGNGAGNRFWAANVPPSEALQPSSSPSTRRCHLEAKYREGKYRRYHPLFGNQEELDKALCAAVTTTDLAETQALLGCGAGINCFSGDPEAPTPLALAEQAGQTLQMEFLRNNRTTEVPRLDSMKPLEKHYSVVLPTVSHSGFLYKTASAGKLLQDRRAREEFSRRWCVLGDGVLSYFENERAVTPNGEIRASEIVCLAVPPPDTHGFEHTFEVYTEGERLYLFGLESAEQAHEWVKCIAKAFVPPLAEDLLARDFERLGRLPYKAGLSLQRAQEGWFSLSGSELRAVFPEGPCEEPLQLRKLQELSIQGDSENQVLVLVERRRTLYIQGERRLDFMGWLGAIQKAAASMGDTLSEQQLGDSDIPVIVYRCVDYITQCGLTSEGIYRKCGQTSKTQRLLESLRQDARSVHLKEGEQHVDDVSSALKRFLRDLPDGLFTRAQRLTWLEASEIEDEEEKVSRYRELLVRLPPVNRATVKALISHLYCVQCFSDTNQMNVHNLAIVFGPTLFQTDGQDYKAGRVVEDLINHYVVVFSVDEEELRKQREEITAIVKMRVAGTASGTQHAGDFICTVYLEEKKAETEQHIKVPASMTAEELTLEILDRRNVGIREKDYWTCFEVNEREEAERPLHFAEKVLPILHGLGTDSHLVVKKHQAMEAMLLYLASRVGDTKHGMMKFREDRSLLGLGLPSGGFHDRYFILNSSCLRLYKEVRSQRPWSGAPETSHRPEKEWPIKSLKVYLGVKKKLRPPTCWGFTVVHETEKHEKQQWYLCCDTQMELREWFATFLFVQHDGLVWPSEPSRVSRAVPEVRLGSVSLIPLRGSENEMRRSVAAFTADPLSLLRNV
binds: all assays above

B4: MKLP-1 (protein, UniProt Q02241 1-960)
chain: MKSARAKTPRKPTVKKGSQTNLKDPVGVYCRVRPLGFPDQECCIEVINNTTVQLHTPEGYRLNRNGDYKETQYSFKQVFGTHTTQKELFDVVANPLVNDLIHGKNGLLFTYGVTGSGKTHTMTGSPGEGGLLPRCLDMIFNSIGSFQAKRYVFKSNDRNSMDIQCEVDALLERQKREAMPNPKTSSSKRQVDPEFADMITVQEFCKAEEVDEDSVYGVFVSYIEIYNNYIYDLLEEVPFDPIKPKPPQSKLLREDKNHNMYVAGCTEVEVKSTEEAFEVFWRGQKKRRIANTHLNRESSRSHSVFNIKLVQAPLDADGDNVLQEKEQITISQLSLVDLAGSERTNRTRAEGNRLREAGNINQSLMTLRTCMDVLRENQMYGTNKMVPYRDSKLTHLFKNYFDGEGKVRMIVCVNPKAEDYEENLQVMRFAEVTQEVEVARPVDKAICGLTPGRRYRNQPRGPVGNEPLVTDVVLQSFPPLPSCEILDINDEQTLPRLIEALEKRHNLRQMMIDEFNKQSNAFKALLQEFDNAVLSKENHMQGKLNEKEKMISGQKLEIERLEKKNKTLEYKIEILEKTTTIYEEDKRNLQQELETQNQKLQRQFSDKRRLEARLQGMVTETTMKWEKECERRVAAKQLEMQNKLWVKDEKLKQLKAIVTEPKTEKPERPSRERDREKVTQRSVSPSPVPLSSNYIAQISNGQQLMSQPQLHRRSNSCSSISVASCISEWEQKIPTYNTPLKVTSIARRRQQEPGQSKTCIVSDRRRGMYWTEGREVVPTFRNEIEIEEDHCGRLLFQPDQNAPPIRLRHRRSRSAGDRWVDHKPASNMQTETVMQPHVPHAITVSVANEKALAKCEKYMLTHQELASDGEIETKLIKGDIYKTRGGGQSVQFTDIETLKQESPNGSRKRRSSTVAPAQPDGAESEWTDVETRCSVAVEMRAGSQLGPGYQHHAQPKRKKP
binds: all assays above

B5: Septin 9 (protein, UniProt Q9UHD8 1-586)
chain: MKKSYSGGTRTSSGRLRRLGDSSGPALKRSFEVEEVETPNSTPPRRVQTPLLRATVASSTQKFQDLGVKNSEPSARHVDSLSQRSPKASLRRVELSGPKAAEPVSRRTELSIDISSKQVENAGAIGPSRFGLKRAEVLGHKTPEPAPRRTEITIVKPQESAHRRMEPPASKVPEVPTAPATDAAPKRVEIQMPKPAEAPTAPSPAQTLENSEPAPVSQLQSRLEPKPQPPVAEATPRSQEATEAAPSCVGDMADTPRDAGLKQAPASRNEKAPVDFGYVGIDSILEQMRRKAMKQGFEFNIMVVGQSGLGKSTLINTLFKSKISRKSVQPTSEERIPKTIEIKSITHDIEEKGVRMKLTVIDTPGFGDHINNENCWQPIMKFINDQYEKYLQEEVNINRKKRIPDTRVHCCLYFIPATGHSLRPLDIEFMKRLSKVVNIVPVIAKADTLTLEERVHFKQRITADLLSNGIDVYPQKEFDEDSEDRLVNEKFREMIPFAVVGSDHEYQVNGKRILGRKTKWGTIEVENTTHCEFAYLRDLLIRTHMQNIKDITSSIHFEAYRVKRLNEGSSAMANGMEEKEPEAPEM
binds: all assays above
